Laboratory results published in patent US8324390B2, “Tetrazole-substituted anthranilamides as pesticides” (Bayer CropScience AG, priority 2008, dated 2012).
Some of these results come from one statement about several compounds together.

System: caterpillars of the armyworm (Spodoptera frugiperda)
Assay: Spodoptera frugiperda test (SPODFR spray treatment)
Assay type: in vivo
Conditions: application rate 100 g/ha, maize leaf discs
From the text: Solvent: 78.0 parts by weight of acetone

Row | SMILES | effect in % (caterpillars killed)
1 | Cc1cc(Cl)cc(C(N)=O)c1NC(=O)c1cc(Cn2nnc(C(F)(F)F)n2)nn1-c1ncccc1Cl [Example 16] | ≥ 80%
2 | CSC[C@H](C)NC(=O)c1cc(C#N)cc(C)c1NC(=O)c1cc(Cn2nnc(C(F)(F)F)n2)nn1-c1ncccc1Cl [Example 22] | ≥ 80%
